Data: paper PMC11967833
These are yes or no findings as the source states them, for the method shown. Binding seen in cells or lysates may run through a third protein. Some binding calls cover weakened binding; strength is not graded here.

Amino acid sequences for entries named in this document (tags omitted).
UniProt Q01082: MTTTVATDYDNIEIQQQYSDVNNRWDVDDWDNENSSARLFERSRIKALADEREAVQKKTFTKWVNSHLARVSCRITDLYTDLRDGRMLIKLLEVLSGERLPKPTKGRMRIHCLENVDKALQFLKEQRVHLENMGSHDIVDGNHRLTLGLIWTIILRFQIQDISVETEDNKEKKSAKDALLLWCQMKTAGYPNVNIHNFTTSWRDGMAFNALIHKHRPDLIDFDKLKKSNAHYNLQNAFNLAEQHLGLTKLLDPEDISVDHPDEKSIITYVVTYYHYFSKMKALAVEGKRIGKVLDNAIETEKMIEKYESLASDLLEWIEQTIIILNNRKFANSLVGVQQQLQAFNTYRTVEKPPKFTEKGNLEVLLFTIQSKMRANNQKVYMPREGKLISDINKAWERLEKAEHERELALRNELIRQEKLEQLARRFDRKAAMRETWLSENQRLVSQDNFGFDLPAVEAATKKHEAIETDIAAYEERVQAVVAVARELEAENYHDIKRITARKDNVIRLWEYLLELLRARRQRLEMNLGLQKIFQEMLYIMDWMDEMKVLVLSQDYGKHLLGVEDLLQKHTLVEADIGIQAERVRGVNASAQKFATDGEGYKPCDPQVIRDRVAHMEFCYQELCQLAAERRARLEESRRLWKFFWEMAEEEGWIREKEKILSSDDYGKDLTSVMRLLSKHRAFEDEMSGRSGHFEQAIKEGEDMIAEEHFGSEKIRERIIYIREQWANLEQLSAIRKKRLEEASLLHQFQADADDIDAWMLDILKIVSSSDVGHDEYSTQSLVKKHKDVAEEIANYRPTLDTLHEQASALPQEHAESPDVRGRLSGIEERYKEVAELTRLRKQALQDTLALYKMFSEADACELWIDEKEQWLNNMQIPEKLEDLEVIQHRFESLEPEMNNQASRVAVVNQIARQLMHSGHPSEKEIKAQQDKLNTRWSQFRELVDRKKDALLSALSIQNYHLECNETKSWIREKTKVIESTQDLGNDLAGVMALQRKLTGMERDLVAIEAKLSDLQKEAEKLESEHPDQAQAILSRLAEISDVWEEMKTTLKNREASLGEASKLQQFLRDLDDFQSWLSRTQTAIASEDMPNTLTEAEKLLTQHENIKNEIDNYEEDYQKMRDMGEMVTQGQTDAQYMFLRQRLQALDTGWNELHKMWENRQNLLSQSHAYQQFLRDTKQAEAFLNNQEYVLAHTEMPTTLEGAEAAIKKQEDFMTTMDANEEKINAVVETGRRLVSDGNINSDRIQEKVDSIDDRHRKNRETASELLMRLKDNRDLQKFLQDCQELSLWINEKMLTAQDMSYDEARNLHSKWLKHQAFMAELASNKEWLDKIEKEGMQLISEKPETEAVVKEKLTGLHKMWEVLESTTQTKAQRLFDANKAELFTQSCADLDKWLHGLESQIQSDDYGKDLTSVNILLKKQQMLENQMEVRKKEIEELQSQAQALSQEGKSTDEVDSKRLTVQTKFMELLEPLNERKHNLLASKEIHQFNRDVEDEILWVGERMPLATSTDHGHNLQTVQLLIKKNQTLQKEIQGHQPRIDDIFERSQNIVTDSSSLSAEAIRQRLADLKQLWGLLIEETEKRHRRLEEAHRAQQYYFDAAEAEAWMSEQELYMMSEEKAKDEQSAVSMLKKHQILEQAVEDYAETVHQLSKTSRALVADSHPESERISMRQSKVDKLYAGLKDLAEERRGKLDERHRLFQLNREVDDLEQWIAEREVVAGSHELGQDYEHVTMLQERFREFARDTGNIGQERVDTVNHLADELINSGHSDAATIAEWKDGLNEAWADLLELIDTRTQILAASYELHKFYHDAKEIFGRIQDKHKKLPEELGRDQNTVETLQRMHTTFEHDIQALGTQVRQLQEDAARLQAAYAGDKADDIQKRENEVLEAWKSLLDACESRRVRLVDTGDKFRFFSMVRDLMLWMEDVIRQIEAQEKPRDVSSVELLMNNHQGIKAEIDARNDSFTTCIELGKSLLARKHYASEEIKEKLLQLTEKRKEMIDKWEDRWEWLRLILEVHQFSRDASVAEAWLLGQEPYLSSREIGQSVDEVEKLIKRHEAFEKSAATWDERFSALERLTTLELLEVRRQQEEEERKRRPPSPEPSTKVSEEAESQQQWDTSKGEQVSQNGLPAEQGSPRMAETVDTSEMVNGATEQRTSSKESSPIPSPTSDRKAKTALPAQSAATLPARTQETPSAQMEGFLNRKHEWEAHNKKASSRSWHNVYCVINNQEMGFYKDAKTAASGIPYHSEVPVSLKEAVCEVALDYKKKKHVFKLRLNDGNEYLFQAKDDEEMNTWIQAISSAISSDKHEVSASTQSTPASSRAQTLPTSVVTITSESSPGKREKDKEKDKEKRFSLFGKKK
UniProt P35222: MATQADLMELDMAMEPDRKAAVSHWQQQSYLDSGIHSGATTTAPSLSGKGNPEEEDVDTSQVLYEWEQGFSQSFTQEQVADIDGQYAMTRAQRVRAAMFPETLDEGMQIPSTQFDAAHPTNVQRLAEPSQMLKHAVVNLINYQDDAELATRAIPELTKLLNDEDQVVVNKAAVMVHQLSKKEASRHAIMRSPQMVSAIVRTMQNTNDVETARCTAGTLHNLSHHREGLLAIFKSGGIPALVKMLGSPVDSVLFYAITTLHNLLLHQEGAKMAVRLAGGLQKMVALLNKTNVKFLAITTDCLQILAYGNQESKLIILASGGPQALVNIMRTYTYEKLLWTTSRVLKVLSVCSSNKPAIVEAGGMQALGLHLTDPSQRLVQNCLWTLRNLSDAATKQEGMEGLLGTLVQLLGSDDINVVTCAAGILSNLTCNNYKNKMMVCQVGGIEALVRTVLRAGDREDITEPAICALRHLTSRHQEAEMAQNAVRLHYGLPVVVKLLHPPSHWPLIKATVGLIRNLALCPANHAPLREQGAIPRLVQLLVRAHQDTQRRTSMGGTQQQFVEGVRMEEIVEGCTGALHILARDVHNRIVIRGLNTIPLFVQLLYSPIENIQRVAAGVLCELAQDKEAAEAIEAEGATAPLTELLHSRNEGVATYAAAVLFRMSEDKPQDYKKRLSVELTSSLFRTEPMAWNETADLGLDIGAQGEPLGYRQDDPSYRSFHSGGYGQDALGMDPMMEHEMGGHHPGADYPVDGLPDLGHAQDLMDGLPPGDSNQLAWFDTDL

Columns and labels:
[1] = target: Spectrin beta, non‐erythrocytic 1 (SPTBN1) (human (endogenous in SNU-449 and LM3)) (UniProt Q01082); assay: co-IP; IP with anti-SPTBN1 antibody on protein A/G magnetic beads from lysates of SNU-449 and LM3 cells transfected with negative control or HCETSR (tRF); lysis buffer 20 mM Tris-HCl, 100 mM KCl, 5 mM MgCl2, 0.5% NP-40, pH 7.5; overnight at 4 °C; immunoblotting for the catenins
[2] = target: β‐catenin (human (endogenous in SNU-449 and LM3)) (UniProt P35222); assay: co-IP; IP with anti-β-catenin antibody on protein A/G magnetic beads from lysates of SNU-449 and LM3 cells transfected with negative control or HCETSR (tRF); lysis buffer 20 mM Tris-HCl, 100 mM KCl, 5 mM MgCl2, 0.5% NP-40, pH 7.5; overnight at 4 °C; immunoblotting for α-catenin and P120-catenin

## β‐catenin (from UniProt P35222 1-781)
[1]
  binding: binds

B1: P120‐catenin (protein, UniProt O60716 1-968)
chain: MDDSEVESTASILASVKEQEAQFEKLTRALEEERRHVSAQLERVRVSPQDANPLMANGTLTRRHQNGRFVGDADLERQKFSDLKLNGPQDHSHLLYSTIPRMQEPGQIVETYTEEDPEGAMSVVSVETSDDGTTRRTETTVKKVVKTVTTRTVQPVAMGPDGLPVDASSVSNNYIQTLGRDFRKNGNGGPGPYVGQAGTATLPRNFHYPPDGYSRHYEDGYPGGSDNYGSLSRVTRIEERYRPSMEGYRAPSRQDVYGPQPQVRVGGSSVDLHRFHPEPYGLEDDQRSMGYDDLDYGMMSDYGTARRTGTPSDPRRRLRSYEDMIGEEVPSDQYYWAPLAQHERGSLASLDSLRKGGPPPPNWRQPELPEVIAMLGFRLDAVKSNAAAYLQHLCYRNDKVKTDVRKLKGIPVLVGLLDHPKKEVHLGACGALKNISFGRDQDNKIAIKNCDGVPALVRLLRKARDMDLTEVITGTLWNLSSHDSIKMEIVDHALHALTDEVIIPHSGWEREPNEDCKPRHIEWESVLTNTAGCLRNVSSERSEARRKLRECDGLVDALIFIVQAEIGQKDSDSKLVENCVCLLRNLSYQVHREIPQAERYQEAAPNVANNTGPHAASCFGAKKGKDEWFSRGKKPIEDPANDTVDFPKRTSPARGYELLFQPEVVRIYISLLKESKTPAILEASAGAIQNLCAGRWTYGRYIRSALRQEKALSAIADLLTNEHERVVKAASGALRNLAVDARNKELIGKHAIPNLVKNLPGGQQNSSWNFSEDTVISILNTINEVIAENLEAAKKLRETQGIEKLVLINKSGNRSEKEVRAAALVLQTIWGYKELRKPLEKEGWKKSDFQVNLNNASRSQSSHSYDDSTLPLIDRNQKSDKKPDREEIQMSNMGSNTKSLDNNYSTPNERGDHNRTLDRSGDLGDMEPLKGTTPLMQDEGQESLEEELDVLVLDDEGGQVSYPSMQKI
[1]
  binding: binds
[2]
  binding: binds
